Data source: PubChem BioAssay AID1053208 (Peter MacCallum Cancer Centre, 2014)
Aim: 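Genes whose silencing cuts survival of bone tumour cells only with doxorubicin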 (primary screen). Cells: mouse osteosarcoma cells, early-passage culture from an engineered mouse model of fibroblastic bone tumour. Reagents: siRNA pool against mouse genes, 40 nM. Time to read-out: about 120 h (48 h before drug, then 72 h with drug). Conditions: doxorubicin 100 nM for 72 h, roughly 30-40% inhibitory dose. Detection: 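Luminescent ATP signal taken as viability with or without 100 nM doxorubicin for 72 h; mean of two wells set against non-targeting siRNA and turned into robust z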. Scale: viability z-score with doxorubicin and doxorubicin viability vs non-targeting: higher = more viable cells under doxorubicin; viability z-score without drug: higher = more viable cells with knock-down alone; z-score of drug to no-drug ratio: higher = less drug sensitisation by knock-down. Active means: 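a pool counts as active when its viability z-score with doxorubicin is -2 or below and its z-score without drug lies between -2 and 2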.
The deposit covers about 17,000 reagents; below is a part drawn at random. In the full data, 788 (4.7%) got an active call. 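Calls rest on z-score classes alone; an extra cut-off of viability at most 70% of control was not applied to them.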

The first 5 records, ahead of the listing:
| target | combined z-score class | viability z-score with doxorubicin | viability z-score without drug | z-score of drug to no-drug ratio | doxorubicin viability vs non-targeting | Outcome |
| --- | --- | --- | --- | --- | --- | --- |
| Dcdc2a | no change with or without drug | -0.22 | 0.84 | -0.67 | 0.92 | inactive |
| Cldn5 | no change with or without drug | 0.45 | -0.17 | 0.67 | 0.98 | inactive |
| Ces1g | no change with or without drug | -0.67 | -0.67 | -0.11 | 0.88 | inactive |
| Ccdc158 | no change with or without drug | 0 | 0.51 | -0.22 | 0.94 | inactive |
| Retreg3 | no change with or without drug | 0.34 | 1.01 | -0.22 | 0.97 | inactive |

Main list, from the start:
| target | combined z-score class | viability z-score with doxorubicin | viability z-score without drug | z-score of drug to no-drug ratio | doxorubicin viability vs non-targeting | Outcome |
| --- | --- | --- | --- | --- | --- | --- |
| Dcdc2a | no change with or without drug | -0.22 | 0.84 | -0.67 | 0.92 | inactive |
| Cldn5 | no change with or without drug | 0.45 | -0.17 | 0.67 | 0.98 | inactive |
| Ces1g | no change with or without drug | -0.67 | -0.67 | -0.11 | 0.88 | inactive |
| Ccdc158 | no change with or without drug | 0 | 0.51 | -0.22 | 0.94 | inactive |
| Retreg3 | no change with or without drug | 0.34 | 1.01 | -0.22 | 0.97 | inactive |
| Ereg | no change with or without drug | 0.45 | -0.17 | 0.67 | 0.98 | inactive |
| Spata20 | no change with or without drug | 1.24 | 1.52 | 0.34 | 1.05 | inactive |
| Or5b21 | no change with or without drug | -0.79 | -0.34 | -0.45 | 0.87 | inactive |
| Cd3g | no change with or without drug | -0.22 | 0.17 | -0.22 | 0.92 | inactive |
| Dnm1 | no change with or without drug | -1.24 | -0.17 | -1.12 | 0.83 | inactive |
| Or5w17 | no change with or without drug | 0 | -0.51 | 0.45 | 0.94 | inactive |
| Rpl35 | low cell count with and without drug | -5.85 | -6.24 | -2.92 | 0.42 | inactive |
| Or4c100 | no change with or without drug | -0.45 | -0.84 | 0.22 | 0.9 | inactive |
| Ido1 | no change with or without drug | 1.57 | 0.84 | 1.12 | 1.08 | inactive |
| Soat2 | no change with or without drug | 0.56 | 0.51 | 0.34 | 0.99 | inactive |
| Uck1 | no change with or without drug | 0 | -0.67 | 0.56 | 0.94 | inactive |
| Ubqln2 | no change with or without drug | 1.46 | -0.17 | 1.8 | 1.07 | inactive |
| Or2a57 | no change with or without drug | -1.35 | -0.17 | -1.24 | 0.82 | inactive |
| Scube2 | no change with or without drug | -1.57 | -0.84 | -1.01 | 0.8 | inactive |
| Faf1 | no change with or without drug | -0.45 | -0.34 | -0.11 | 0.9 | inactive |
| Nup43 | no change with or without drug | 0.45 | -1.18 | 1.46 | 0.98 | inactive |
| Usp1 | no change with or without drug | 0.45 | 1.01 | -0.11 | 0.98 | inactive |
| Ephb6 | no change with or without drug | 0.22 | 0.34 | 0.11 | 0.96 | inactive |
| Vmn1r218 | no change with or without drug | -1.57 | -0.84 | -1.01 | 0.8 | inactive |
| Ppfia2 | no change with or without drug | -0.45 | 1.18 | -1.12 | 0.9 | inactive |
| Slc6a13 | no change with or without drug | 0.67 | 1.52 | -0.22 | 1 | inactive |
| Coil | no change with or without drug | 0.79 | 1.01 | 0.22 | 1.01 | inactive |
| Abhd15 | low cell count with doxorubicin only | -2.25 | -1.35 | -1.46 | 0.74 | active |
| Atrx | no change with or without drug | -0.67 | 0.17 | -0.67 | 0.88 | inactive |
| Apol7c | no change with or without drug | -0.9 | -0.51 | -0.56 | 0.86 | inactive |
| Miga1 | no change with or without drug | 0.45 | -0.17 | 0.67 | 0.98 | inactive |
| Ank1 | no change with or without drug | 0.67 | -0.17 | 0.9 | 1 | inactive |
| Stox2 | high cell count with doxorubicin only | 2.02 | 1.01 | 1.46 | 1.12 | inactive |
| Atp1b2 | no change with or without drug | 0.67 | 0.17 | 0.67 | 1 | inactive |
| Homez | no change with or without drug | 0.45 | 0 | 0.56 | 0.98 | inactive |
| Rgs12 | no change with or without drug | 0.9 | -1.18 | 2.02 | 1.02 | inactive |
| Bdkrb1 | high cell count without drug only | 0 | 2.36 | -1.35 | 0.94 | inactive |
| Crhr2 | no change with or without drug | 1.35 | 1.18 | 0.67 | 1.06 | inactive |
| Zfp93 | no change with or without drug | 1.57 | 1.85 | 0.45 | 1.08 | inactive |
| Cngb3 | no change with or without drug | 0.45 | -0.17 | 0.67 | 0.98 | inactive |
| Atoh7 | no change with or without drug | -0.22 | -0.84 | 0.45 | 0.92 | inactive |
| Tiprl | no change with or without drug | -0.45 | 1.18 | -1.12 | 0.9 | inactive |
| Kansl2 | no change with or without drug | 1.12 | 1.35 | 0.34 | 1.04 | inactive |
| Pcdha3 | low cell count with and without drug | -2.92 | -2.02 | -1.8 | 0.68 | inactive |
| Or5d41 | low cell count with doxorubicin only | -2.25 | -0.84 | -1.8 | 0.74 | active |
| Slc17a2 | no change with or without drug | -1.69 | -0.67 | -1.24 | 0.79 | inactive |
| AA986860 | no change with or without drug | 0.45 | -0.51 | 1.01 | 0.98 | inactive |
| Hba-a1 | no change with or without drug | -0.45 | -0.51 | 0 | 0.9 | inactive |
| Gckr | low cell count with doxorubicin only | -2.02 | -1.69 | -1.01 | 0.76 | active |
| Fmo3 | no change with or without drug | 0.67 | 0.17 | 0.67 | 1 | inactive |
